# Experimental data reported in patent publication US20250084044A1, “PROTOPORPHYRINOGEN OXIDASE INHIBITORS” (Enko Chem, Inc., priority 2022, published 2025).
# Some results were stated once for a whole list of compounds, not compound by compound.
# Molecular target: T1, mutant ΔG210-AmPPO (Amaranthus tuberculatus, UniProt Q0NZW9, DEL211-211, form not given)
# T1 sequence (Q0NZW9 with tags, fused parts or gaps DEL211-211): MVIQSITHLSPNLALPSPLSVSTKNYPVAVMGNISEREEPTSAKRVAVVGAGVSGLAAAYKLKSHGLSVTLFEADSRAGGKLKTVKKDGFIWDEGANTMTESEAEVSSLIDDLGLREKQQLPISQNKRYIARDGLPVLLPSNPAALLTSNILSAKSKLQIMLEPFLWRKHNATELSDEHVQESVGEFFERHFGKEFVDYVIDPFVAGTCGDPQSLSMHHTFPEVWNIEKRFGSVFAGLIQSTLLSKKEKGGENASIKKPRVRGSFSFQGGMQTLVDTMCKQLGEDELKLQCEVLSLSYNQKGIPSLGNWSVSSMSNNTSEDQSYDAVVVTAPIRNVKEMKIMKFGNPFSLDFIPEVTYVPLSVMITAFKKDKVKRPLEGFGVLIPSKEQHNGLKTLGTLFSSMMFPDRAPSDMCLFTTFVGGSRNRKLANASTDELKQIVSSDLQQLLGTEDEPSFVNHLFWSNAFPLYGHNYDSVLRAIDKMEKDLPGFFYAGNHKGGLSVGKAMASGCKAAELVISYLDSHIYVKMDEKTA
# Type: biochemical, Amaranthus tuberculantum
# Details: Example 17b; read-out: IC50 in the AG210 PPO in vitro assay
row,SMILES,IC50
1,"COC(=O)C(C)N1C(=O)C(F)(F)Oc2cc(Cl)c(-c3c(F)c(F)c(F)c(F)c3F)cc21 (stereo in doubt) [Compound 170, methyl (S)-2-(7-chloro-2,2-difluoro-3-oxo-6-(perfluorophenyl)-2,3-dihydro-4H-benzo[b][1,4]oxazin-4-yl)propanoate]",< 1000 nM
2,"COC(=O)C(C)N1C(=O)C(F)(F)Oc2cc(Cl)c(-c3c(F)c(F)c(F)c(F)c3F)cc21 (stereo in doubt) [Compound 171, methyl (R)-2-(7-chloro-2,2-difluoro-3-oxo-6-(perfluorophenyl)-2,3-dihydro-4H-benzo[b][1,4]oxazin-4-yl)propanoate]",< 1000 nM
3,"COC(=O)C(C)N1C(=O)C(F)(F)Oc2cc(F)c(-c3c(F)c(F)c(F)c(F)c3F)c(F)c21 (stereo in doubt) [Compound 174, methyl (S)-2-(2,2,5,7-tetrafluoro-3-oxo-6-(perfuorophenyl)-2,3-dihydro-4H-benzo[b][1,4]oxazin-4-yl)propanoate]",< 100 nM
4,"COC(=O)C(C)N1C(=O)C(F)(F)Oc2cc(F)c(-c3c(F)c(F)c(F)c(F)c3F)c(F)c21 (stereo in doubt) [Compound 175, methyl (R)-2-(2,2,5,7-tetrafluoro-3-oxo-6-(perfluorophenyl)-2,3-dihydro-H-benzo[b][1,4]oxazin-4-yl)propanoate]",< 100 nM
5,"COC(=O)[C@@H](C)N1C(=O)C(F)(F)Oc2cc(F)c(-c3c(F)c(F)c(F)c(F)c3F)cc21 [Compound 8, methyl (R)-2-(2,2,7-trifluoro-3-oxo-6-(perfluorophenyl)-2,3-dihydro-4H-benzo[b][1,4]oxazin-4-yl)propanoate]",< 100 nM
6,"C[C@@H](C(=O)O)N1C(=O)C(F)(F)Oc2cc(F)c(-c3c(F)c(F)c(F)c(F)c3F)cc21 [Compound 11, (S)-2-(2,2,7-trifluoro-3-oxo-6-(perfluorophenyl)-2,3-dihydro-4H-benzo[b][1,4]oxazin-4-yl)propanoic acid]",< 1000 nM
7,"O=C(CN1C(=O)C(F)(F)Oc2cc(F)c(-c3c(F)c(F)c(F)c(F)c3F)cc21)NS(=O)(=O)C(F)(F)F [Compound 12, 2-(2,2,7-trifluoro-3-oxo-6-(perfluorophenyl)-2,3-dihydro-4H-benzo[b][1,4]oxazin-4-yl)N-((trifluoromethyl)sulfonyl)acetamide]",< 100 nM
8,"CS(=O)(=O)NC(=O)CN1C(=O)C(F)(F)Oc2cc(F)c(-c3c(F)c(F)c(F)c(F)c3F)cc21 [Compound 13, N-(methylsulfonyl)-2-(2,2,7-trifluoro-3-oxo-6-(perfluorophenyl)-2,3-dihydro-4H-benzo[b][1,4]oxazin-4-yl)acetamide]",< 1000 nM
9,"CC(C)N(C)S(=O)(=O)NC(=O)CN1C(=O)C(F)(F)Oc2cc(F)c(-c3c(F)c(F)c(F)c(F)c3F)cc21 [Compound 14, N-(N-isopropyl-N-methylsulfamoyl)-2-(2,2,7-trifluoro-3-oxo-6-(perfluorophenyl)-2,3-dihydro-4H-benzo[b][1,4]oxazin-4-yl)acetamide]",< 1000 nM
10,"CN(C)S(=O)(=O)NC(=O)CN1C(=O)C(F)(F)Oc2cc(F)c(-c3c(F)c(F)c(F)c(F)c3F)cc21 [Compound 15, N-(N,N-dimethylsulfamoyl)-2-(2,2,7-trifluoro-3-oxo-6-(perfluorophenyl)-2,3-dihydro-4H-benzo[b][1,4]oxazin-4-yl)acetamide]",< 100 nM
11,"O=C1N(C2(C(=O)O)CC2)c2cc(-c3c(F)c(F)c(F)c(F)c3F)c(F)cc2OC1(F)F [Compound 21, 1-(2,2,7-trifluo-3-oxo-6-(perfluorophenyl)-2,3-dihydro-4H-benzo[b][1,4]oxazin-4-yl)cyclopropane-1-carboxylic acid]",< 1000 nM
12,"COC(=O)c1ccc(CN2C(=O)C(F)(F)Oc3cc(F)c(-c4c(F)c(F)c(F)c(F)c4F)cc32)cc1 [Compound 26, methyl 4-((2,2,7-trifluoro-3-oxo-6-(perfluorophenyl)-2,3-dihydro-4H-benzo[b][1,4]oxazin-4-yl)methyl)benzoate]",< 100 nM
13,"O=C(O)c1ccc(CN2C(=O)C(F)(F)Oc3cc(F)c(-c4c(F)c(F)c(F)c(F)c4F)cc32)cc1 [Compound 27, 4-((2,2,7-trifluoro-3-oxo-6-(perfluorophenyl)-2,3-dihydro-4H-benzo[b][1,4]oxazin-4-yl)methyl)benzoic acid]",< 100 nM
14,"O=C(O)C#CCN1C(=O)C(F)(F)Oc2cc(F)c(-c3c(F)c(F)c(F)c(F)c3F)cc21 [Compound 28, 4-(2,2,7-trifluoro-3-oxo-6-(perfluorophenyl)-2,3-dihydro-4H-benzo[b][1,4]oxazin-4-yl)but-2-ynoic acid]",< 100 nM
15,"COC(=O)CN1C(=O)C(F)(F)Oc2ccc(-c3c(F)c(F)c(F)c(F)c3F)cc21 [Compound 29, methyl 2-(2,2-difluoro-3-oxo-6-(perfluorophenyl)-2,3-dihydro-4H-benzo[b][1,4]oxazin-4-yl)acetate]",< 100 nM
16,"COC(=O)[C@H](C)N1C(=O)C2(CC2)Oc2cc(F)c(-c3c(F)c(F)c(F)c(F)c3F)cc21 [Compound 31, methyl (S)-2-(7-fluoro-3-oxo-6-(perfluorophenyl)spiro[benzo[b][1,4]oxazine-2,1′-cyclopropan]-4(3H)-yl)propanoate]",< 100 nM
17,"COC(=O)[C@@H](C)N1C(=O)C2(CC2)Oc2cc(F)c(-c3c(F)c(F)c(F)c(F)c3F)cc21 [Compound 32, methyl (R)-2-(7-fluoro-3-oxo-6-(perfluorophenyl)spiro[benzo[b][1,4]oxazine-2,1′-cyclopropan]-4(3H)-yl)propanoate]",< 100 nM
18,"C[C@@H](C(=O)O)N1C(=O)C2(CC2)Oc2cc(F)c(-c3c(F)c(F)c(F)c(F)c3F)cc21 [Compound 33, (S)-2-(7-fluoro-3-oxo-6-(perfluorophenyl)spiro[benzo[b][1,4]oxazine-2,1′-cyclopropan]-4(3H)-yl)propanoic acid]",< 1000 nM
19,"CCOC(=O)[C@H](C)N1C(=O)C(F)(F)Oc2cc(F)c(-c3c(F)c(F)c(F)c(F)c3F)cc21 [Compound 35, ethyl (S)-2-(2,2,7-trifluoro-3-oxo-6-(perfluorophenyl)-2,3-dihydro-H-benzo[b][1,4]oxazin-4-yl)propanoate]",< 100 nM
20,"CCOC(=O)[C@@H](C)N1C(=O)C(F)(F)Oc2cc(F)c(-c3c(F)c(F)c(F)c(F)c3F)cc21 [Compound 36, ethyl (R)-2-(2,2,7-trifluoro-3-oxo-6-(perfuorophenyl)-2,3-dihydro-4H-benzo[b][1,4]oxazin-4-yl)propanoate]",< 100 nM
21,"CC(C)OC(=O)[C@H](C)N1C(=O)C(F)(F)Oc2cc(F)c(-c3c(F)c(F)c(F)c(F)c3F)cc21 [Compound 37, isopropyl (S)-2-(2,2,7-trifluoro-3-oxo-6-(perfluorophenyl)-2,3-dihydro-4H-benzo[b][1,4]oxazin-4-yl)propanoate]",< 100 nM
22,"CC(C)OC(=O)[C@@H](C)N1C(=O)C(F)(F)Oc2cc(F)c(-c3c(F)c(F)c(F)c(F)c3F)cc21 [Compound 38, isopropyl (R)-2-(2,2,7-trifluoro-3-oxo-6-(perfluorophenyl)-2,3-dihydro-4H-benzo[b][1,4]oxazin-4-yl)propanoate]",< 100 nM
23,"COC(=O)CN1C(=O)COc2ccc(-c3c(F)c(F)c(F)c(F)c3F)cc21 [Compound 39, methyl 2-(3-oxo-6-(perfluorophenyl)-2,3-dihydro-4H-benzo[b][1,4]oxazin-4-yl)acetate]",< 1000 nM
24,"COC(=O)[C@H](C)N1C(=O)COc2ccc(-c3c(F)c(F)c(F)c(F)c3F)cc21 [Compound 41, methyl (S)-2-(3-oxo-6-(perfluorophenyl)-2,3-dihydro-4H-benzo[b][1,4]oxazin-4-yl)propanoate]",< 1000 nM
25,"COC(=O)[C@@H](C)N1C(=O)COc2ccc(-c3c(F)c(F)c(F)c(F)c3F)cc21 [Compound 42, methyl (R)-2-(3-oxo-6-(perfluorophenyl)-2,3-dihydro-4H-benzo[b][1,4]oxazin-4-yl)propanoate]",< 1000 nM
26,"COC(=O)CCN1C(=O)C(F)(F)Oc2cc(F)c(-c3c(F)c(F)c(F)c(F)c3F)cc21 [Compound 45, methyl 3-(2,2,7-trifluoro-3-oxo-6-(perfluorophenyl)-2,3-dihydro-4H-benzo[b][1,4]oxazin-4-yl)propanoate]",< 100 nM
27,O=C(O)CCN1C(=O)C(F)(F)Oc2cc(F)c(-c3c(F)c(F)c(F)c(F)c3F)cc21 [Compound 46],< 1000 nM
28,"O=C(O)C(F)(F)CN1C(=O)C(F)(F)Oc2cc(F)c(-c3c(F)c(F)c(F)c(F)c3F)cc21 [Compound 47, 2,2-difluoro-3-(2,2,7-trifluoro-3-oxo-6-(perfluorophenyl)-2,3-dihydro-4H-benzo[b][1,4]oxazin-4-yl)propanoic acid]",< 100 nM
29,"COC(=O)C(F)(F)CN1C(=O)C(F)(F)Oc2cc(F)c(-c3c(F)c(F)c(F)c(F)c3F)cc21 [Compound 48, methyl 2,2-difluoro-3-(2,2,7-trifluoro-3-oxo-6-(perfluorophenyl)-2,3-dihydro-4H-benzo[b][1,4]oxazin-4-yl)propanoate]",< 100 nM
30,"CC[C@@H](C(=O)OC)N1C(=O)C(F)(F)Oc2cc(F)c(-c3c(F)c(F)c(F)c(F)c3F)cc21 [Compound 49, methyl (S)-2-(2,2,7-trifluoro-3-oxo-6-(perfluorophenyl)-2,3-dihydro-4H-benzo[b][1,4]oxazin-4-yl)butanoate]",< 100 nM
